The target in one assay is T1, pTINCR-HA.
T1 sequence: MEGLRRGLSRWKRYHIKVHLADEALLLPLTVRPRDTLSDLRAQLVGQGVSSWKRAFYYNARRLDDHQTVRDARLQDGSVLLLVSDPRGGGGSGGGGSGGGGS
In words: co-IP; U2OS cells co-transfected with pTINCR-HA and CDC42-Flag plasmids; anti-HA immunoprecipitation; anti-HA and anti-Flag blots.

By UniProt entry, the sequences of proteins in these tests, tags left out. Residues count along the entry.
UniProt P63165, residues 1-97: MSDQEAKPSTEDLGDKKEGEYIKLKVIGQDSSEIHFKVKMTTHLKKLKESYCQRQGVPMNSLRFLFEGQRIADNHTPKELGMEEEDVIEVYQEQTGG
UniProt P61956: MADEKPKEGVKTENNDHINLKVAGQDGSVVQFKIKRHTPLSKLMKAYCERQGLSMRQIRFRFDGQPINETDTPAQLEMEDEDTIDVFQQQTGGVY
UniProt P60953: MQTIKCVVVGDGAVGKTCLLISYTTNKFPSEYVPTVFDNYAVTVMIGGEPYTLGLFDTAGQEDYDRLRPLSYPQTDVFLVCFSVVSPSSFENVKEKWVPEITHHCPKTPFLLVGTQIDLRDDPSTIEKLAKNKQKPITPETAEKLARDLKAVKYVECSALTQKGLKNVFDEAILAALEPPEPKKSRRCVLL

The target in a further assay is GST-SUMO1 (UniProt P63165). The assay is described as follows: pull-down; GST-SUMO1 or GST-SUMO2/3 bound onto glutathione-sepharose beads, incubated with protein extracts of U2OS cells (doxycycline 48 h) for 2 h at 4 °C; Western blot; only the target purified. (In general: A western blot detects proteins with antibodies after separation by electrophoresis.)
A further assay concerns the target GST-SUMO2/3 (UniProt P61956). Described as above.

Results are given in words; binding and its absence hold for the method and conditions named. Binding seen in cells or lysates may run through a third protein. Some entries that bind do so weakly or less than the wild type. Where a sequence is shown, tags or fusion partners need not be part of it.

CDC42-Flag (from UniProt P60953 1-191): the binding result with pTINCR-HA is listed as “binds”.

B1: pTINCR-HA (protein, UniProt A0A2R8Y7D0 1-87)
chain: MEGLRRGLSRWKRYHIKVHLADEALLLPLTVRPRDTLSDLRAQLVGQGVSSWKRAFYYNARRLDDHQTVRDARLQDGSVLLLVSDPRGGGGSGGGGSGGGGS
As to B1, the binding entry in the assay with GST-SUMO1 and in the assay with GST-SUMO2/3 was “binds” in each case.
